No constants are given. Whether binding was seen depends on the method and setting. For part of these data: In cells and extracts the contact can be indirect. Some entries that bind do so weakly or less than the wild type. For part of these data: Where a sequence is shown, tags or fusion partners need not be part of it.
What was measured:
[1] = biological target: T1, IPA1 fused with a HA tag (HA-IPA1) (rice (Oryza sativa L. subsp. japonica)) (UniProt Q7EXZ2); test: co-IP; HA-IPA1 and OsSAPK6-GFP co-expressed in rice protoplasts; extracts immunoprecipitated with anti-IPA1 monoclonal antibody, detected with anti-GFP
T1 sequence: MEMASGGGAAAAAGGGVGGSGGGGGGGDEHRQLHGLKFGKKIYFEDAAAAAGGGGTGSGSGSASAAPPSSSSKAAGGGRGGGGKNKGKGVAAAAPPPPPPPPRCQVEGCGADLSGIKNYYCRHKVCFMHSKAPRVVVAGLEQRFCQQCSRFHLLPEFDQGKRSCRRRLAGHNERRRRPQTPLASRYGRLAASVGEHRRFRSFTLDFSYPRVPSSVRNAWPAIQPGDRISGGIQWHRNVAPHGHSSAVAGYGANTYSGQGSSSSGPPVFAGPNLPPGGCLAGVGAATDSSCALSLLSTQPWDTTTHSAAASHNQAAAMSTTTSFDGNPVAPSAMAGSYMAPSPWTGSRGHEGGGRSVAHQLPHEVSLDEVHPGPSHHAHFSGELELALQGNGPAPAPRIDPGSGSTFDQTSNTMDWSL

[2] = biological target: T2, IPA1 in pGBKT7 (yeast two-hybrid bait) (rice (Oryza sativa L. subsp. japonica)) (UniProt Q7EXZ2); test: two-hybrid; Matchmaker GAL4-based Two-Hybrid System 3; OsSAPK6 in pGADT7, IPA1 in pGBKT7; yeast AH109; selection on -Leu/-Trp/-His/-Ade
T2 sequence: T1 sequence

[3] = biological target: T3, OsSAPK6-CFP^N (rice (Oryza sativa L. subsp. japonica)) (UniProt Q6ZI44); test: split reporter; BiFC in rice leaf protoplasts; CFP^N and CFP^C fusions (puc-SCYNE, puc-SCYCE) co-expressed from 35S promoter, incubated in the dark overnight, confocal microscopy
T3 sequence: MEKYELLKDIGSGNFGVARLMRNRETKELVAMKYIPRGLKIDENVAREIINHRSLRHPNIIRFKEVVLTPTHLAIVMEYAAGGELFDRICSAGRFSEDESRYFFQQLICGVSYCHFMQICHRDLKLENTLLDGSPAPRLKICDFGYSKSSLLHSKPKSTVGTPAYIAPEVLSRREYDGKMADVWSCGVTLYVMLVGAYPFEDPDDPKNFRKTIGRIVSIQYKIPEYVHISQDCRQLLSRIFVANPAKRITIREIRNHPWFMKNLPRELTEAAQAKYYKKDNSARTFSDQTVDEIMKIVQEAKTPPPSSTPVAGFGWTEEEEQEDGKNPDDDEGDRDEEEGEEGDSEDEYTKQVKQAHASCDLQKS

B1: OsSAPK6 fused with GFP (OsSAPK6-GFP) (enzyme, UniProt Q6ZI44 1-365)
chain: T3 sequence
Question: For B1, which binding [1] is on record?
Answer: The binding was “binds”.

B2: OsSAPK6 in pGADT7 (yeast two-hybrid prey) (enzyme, UniProt Q6ZI44 1-365)
chain: T3 sequence
Question: With B2 as the binder, how does the binding [2] read?
Answer: The binding was “binds”.

B3: IPA1^1–181-CFP^C (domain or fragment, UniProt Q7EXZ2 1-181)
chain: MEMASGGGAAAAAGGGVGGSGGGGGGGDEHRQLHGLKFGKKIYFEDAAAAAGGGGTGSGSGSASAAPPSSSSKAAGGGRGGGGKNKGKGVAAAAPPPPPPPPRCQVEGCGADLSGIKNYYCRHKVCFMHSKAPRVVVAGLEQRFCQQCSRFHLLPEFDQGKRSCRRRLAGHNERRRRPQTP
Question: B3 was tested. Which binding [3] did it give?
Answer: The binding was “no binding”.
